Results on 54 compounds are retold here after PubChem BioAssay AID1487 (National Center for Advancing Translational Sciences (NCATS), 2009).

The list shows a part of the results. Shown are side measurements of this screen, not its main read-out; they come without a call. The list favours compounds with an active or inconclusive main result. Potencies come from curve fits of mixed quality, noted in brackets.

The assay can be described thus: qHTS Assay for Modulators of Lamin A Splicing. The note with it: HeLa LMNA splicing GFP/RFP minigene ratio, 48 h. In outline: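 S3 HeLa stable clones carrying a lamin A-EGFP splicing minigene plus DsRed2 were seeded at 600 cells/well in Opti-MEM with 2% FBS, pin-dosed and incubated 48 h at 37°C. Acumen cytometry (488 nm) gave the GFP/RFP total-intensity ratio.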
Where [1] appears, read: measured here: RFP viability control channel.
Setting [2] is: measured here: GFP splicing reporter channel.

Take `Cc1ccc(C)c(S(=O)(=O)NCc2ccc(C(=O)N3CCCCCC3)cc2)c1`: the AC50 under setting [1] was 35.5 µM [rising, single point].
Consider `CCOc1ccc(Br)cc1S(=O)(=O)Nc1cccc(S(=O)(=O)N(CC)CC)c1`, for which the AC50 under setting [2] is 11.2 µM [rising, single point] and the AC50 under setting [1] is 28.2 µM [rising, single point].
Regarding `CCC(Sc1ncccc1C(=O)Oc1ccccc1Cl)C(=O)Nc1ccccc1OC` (stereo not drawn), the AC50 under setting [1] is 15.8 µM [rising, single point].
On the same count and under the same terms, the same measure for `Oc1c(C=C2N=c3ccccc3=N2)sc(=S)n1C1CCCCC1`: 0.00398 µM [falling, full curve, poor fit]; for `Cc1ccc(-n2c(O)c(C=NCc3ccccn3)c3ccccc3c2=O)cc1C`: 14.1 µM [rising, partial curve].
For the compound `Cc1csc(NC(=O)c2cccc(S(=O)(=O)N3CCN(C)CC3)c2)n1`, the AC50 under setting [2] is 1.58 µM [falling, full curve, poor fit].
For the compound `CCOC(=O)c1cc(NC(=O)NCc2ccco2)c(C)nc1C`, the AC50 under setting [2] was 10 µM [rising, partial curve, poor fit].
In the case of `c1ccc(Cc2noc(CN3CCCN(C4Cc5ccccc5C4)CC3)n2)cc1`, the AC50 was 22.4 µM [falling, partial curve, poor fit] under setting [2] and 0.2 µM [falling, full curve, poor fit] under setting [1].
As for `O=C(Nc1ccc([N+](=O)[O-])cc1)C1(c2ccccc2)CCOCC1`, the AC50 under setting [2] is 0.0224 µM [rising, full curve, poor fit].
The same measure, in the same setting: the same measure for `Cc1cc(C)c2nc(C(F)(F)F)c(C#N)c(N)c2c1`: 35.5 µM [rising, single point].
For the compound `COCCOC(=O)C1=C(C)NC(C)=C(C(=O)OC(C)C)[C@H]1c1cccc([N+](=O)[O-])c1`, the AC50 is 0.1 µM [falling, full curve] under setting [2] and 0.1 µM [falling, full curve] under setting [1].
`Cc1ccc(-c2nnc(SCC(=O)N3CC(C)CC(C)C3)o2)cc1C` (stereo not drawn): the AC50 under setting [2] was 11.2 µM [rising, partial curve] and the AC50 under setting [1] is 17.8 µM [rising, partial curve].
For `c1nc(N2CCCCCC2)c2[nH]cnc2n1`, under setting [1], the AC50 is 14.1 µM [rising, single point].
The same measure, in the same setting: for `Cc1oc2ccc(NS(=O)(=O)c3cccc4cccnc34)cc2c1C(=O)OC(C)C` the value was 17.8 µM [rising, single point]; for `CCOC(=O)N1CCN(C(=O)CN(Cc2ccccc2)S(=O)(=O)c2ccc(OC)c(C)c2)CC1`, 35.5 µM [rising, single point].
For `COc1ccc(NC(=O)Cn2cc(C(=O)c3ccncc3)c(=O)c3cc(C)ccc32)cc1Cl`, the AC50 runs as follows: under setting [2], 0.158 µM [falling, full curve, poor fit]; under setting [1], 11.2 µM [falling, partial curve, poor fit].
Consider `Cc1ccnc(NC(=O)CCCOc2cc(=O)n(C)c3ccccc23)c1`, for which the AC50 runs as follows: under setting [2], 15.8 µM [falling, single point]; under setting [1], 11.2 µM [falling, partial curve].
`CN(C)CCCN(Cc1ccccc1)C(=S)Nc1cccc(C(F)(F)F)c1`: the AC50 under setting [1] was 17.8 µM [rising, partial curve].
In the case of `Cc1cc(S(=O)(=O)N2CCN(Cc3ccc4c(c3)OCO4)CC2)cc(C)c1N1CCCC1=O`, the AC50 under setting [2] was 4.47 µM [rising, partial curve] and the AC50 under setting [1] is 10 µM [rising, partial curve].
Turning to `COc1ccccc1N1CCN(C(=O)c2ccc(CS(=O)(=O)c3ccccc3OC)o2)CC1`, under setting [1], the AC50 was 15.8 µM [rising, single point].
`COc1cccc(-c2nc(NC3CCNCC3)c3ccccc3n2)c1`: the AC50 under setting [2] is 10 µM [falling, partial curve] and the AC50 under setting [1] was 7.08 µM [falling, partial curve, poor fit].
For the compound `O=C(c1cn(-c2ccccc2)nc1-c1cccc([N+](=O)[O-])c1)N1CCCCC1`, under setting [1], the AC50 was 3.55 µM [falling, partial curve].
In the case of `CCOc1ccc(N(Cc2ccc(OC)c(OC)c2)C(=O)c2ccco2)cc1`, the AC50 runs as follows: under setting [2], 17.8 µM [falling, partial curve, poor fit]; under setting [1], 0.0224 µM [falling, full curve, poor fit].
Turning to `O=C(Cn1nc(-c2ccccc2)c2cnc3ccc(F)cc3c21)NC1CCCC1`, the AC50 under setting [2] is 6.31 µM [falling, partial curve, poor fit].
`COC(=O)[C@@]1(Cc2ccc(OC)cc2)[C@H]2c3cc(C(=O)N(C)C)n(CCc4ccc(OC)c(Br)c4)c3C[C@H]2CN1C(=O)c1ccccc1`: the AC50 was 12.6 µM [rising, partial curve] under setting [2] and 17.8 µM [rising, partial curve] under setting [1].
For the compound `Cn1c(-c2ccccc2)cc2c3no[n+]([O-])c3ccc21`, the AC50 reads like this: under setting [2], 3.98 µM [falling, full curve]; under setting [1], 2.51 µM [falling, full curve].
Take `O=C(Nc1cc(C(=O)Nc2ccc(S(=O)(=O)O)cc2S(=O)(=O)O)cc(C(=O)Nc2ccc(S(=O)(=O)O)cc2S(=O)(=O)O)c1)Nc1cc(C(=O)Nc2ccc(S(=O)(=O)O)cc2S(=O)(=O)O)cc(C(=O)Nc2ccc(S(=O)(=O)O)cc2S(=O)(=O)O)c1`: the half-maximal activity concentration (AC50) under setting [2] is 10 µM [falling, partial curve, poor fit].
As to `O=C(COC(=O)CCC1CCCC1)Nc1ccccc1Sc1ccccc1`, the half-maximal activity concentration (AC50) is, setting by setting: under setting [2], 0.708 µM [rising, full curve, poor fit]; under setting [1], 0.631 µM [rising, single point].
As for `COCCCNC(=O)CCc1ccccc1`, the AC50 under setting [1] was 4.47 µM [falling, full curve, poor fit].
Same read-out and setting: for `COc1ccc(OC)c(C2NC(=O)NC(C)=C2C(=O)Nc2ccc(C)cc2)c1` (stereo not drawn) the value was 3.98 µM [falling, single point]; for `O=C(O)C1CCN(c2nc(-c3ccccc3)nc3c2oc2ccccc23)CC1`, 1 µM [rising, partial curve, poor fit].
With `Cc1cc(NC(=O)CSc2nc3c([nH]c4ccccc43)c(=O)n2-c2ccccc2F)no1`, the AC50 under setting [2] was 35.5 µM [falling, single point] and the AC50 under setting [1] was 35.5 µM [falling, single point].
With `COc1ccc(C(=O)OCC(=O)NC2CC2)cc1[N+](=O)[O-]`, the half-maximal activity concentration (AC50) was 0.00447 µM [falling, full curve, poor fit] under setting [2] and 0.01 µM [falling, full curve, poor fit] under setting [1].
On to `CCCCCCc1cc2cc(C(=O)Nc3ccc(OC)cc3)c(=O)oc2cc1O`, for which the AC50 under setting [1] was 4.47 µM [rising, full curve].
Regarding `Cc1cc(N/N=C/c2ccccc2O)nc(-c2ccccc2O)n1`, the AC50 under setting [2] was 35.5 µM [falling, single point].
On to `Cc1ccc(S(=O)(=O)N(C)CCCC(=O)Nc2cc(C)ccc2C)cc1`, for which the AC50 under setting [1] is 14.1 µM [rising, single point].
Consider `O=C(COc1ccc([N+](=O)[O-])cc1)N1CCC(c2nc3ccccc3s2)CC1`, for which the AC50 under setting [2] is 3.16 µM [falling, full curve, poor fit].
On the same count and under the same terms, for `CCOc1ccc(NC(=S)NNc2ccnc3cc(Cl)ccc23)cc1` the value was 8.91 µM [falling, partial curve, poor fit].
`COc1ccc(/C=N/Nc2nonc2N)cc1`: under setting [1], the AC50 was 20 µM [falling, single point].
Take `COC(=O)Cn1c2ccc(F)cc2c2nc(C)sc21`: the AC50 under setting [1] was 35.5 µM [rising, single point].
In the case of `CC(C)(CC(=O)OCC(=O)Nc1ccccc1F)CC1=NS(=O)(=O)c2ccccc2N1`, the AC50 under setting [2] was 2 µM [rising, partial curve, poor fit].
For the compound `Cc1ccc(C(=O)Nc2ccc(S(=O)(=O)N3CCc4ccccc43)cc2)o1`, the AC50 under setting [2] is 14.1 µM [rising, partial curve] and the AC50 under setting [1] was 17.8 µM [rising, single point].
Turning to `NC(N)=N/N=C/c1ccc(OCc2ccc(Cl)cc2)cc1`, the AC50 under setting [1] is 10 µM [rising, single point].
In the case of `CCN(CC)S(=O)(=O)c1cc(-c2nnc(-c3ccc(Br)cc3)o2)ccc1Cl`, the AC50 by setting is: under setting [2], 7.08 µM [rising, single point]; under setting [1], 2.82 µM [rising, full curve].
With `Cc1cccc(C)c1Nc1nnc(SCC(=O)Nc2cc(S(=O)(=O)N3CCCCC3)ccc2Cl)s1`, under setting [1], the AC50 was 35.5 µM [rising, single point].
`CC(=O)c1c(C)[nH]c(C(=O)OC(C)C(=O)Nc2cc(S(=O)(=O)N3CCCCC3)ccc2Cl)c1C` (stereo not drawn): under setting [1], the AC50 is 5.62 µM [rising, single point].
The same measure, in the same setting: the same measure for `CC(C)(C)S(=O)(=O)c1ccsc1C(=O)O`: 35.5 µM [rising, single point].
In the case of `COc1ccc(C(=O)NCCn2ccc3ccccc32)c(OC)c1`, the AC50 is 11.2 µM [rising, partial curve, poor fit] under setting [2] and 7.94 µM [rising, partial curve] under setting [1].
As to `Cc1ccc(NC(=O)Nc2nnc(Cc3ccc([N+](=O)[O-])cc3)s2)cc1C`, the AC50 under setting [1] is 1.58 µM [rising, partial curve, poor fit].
`CCOC(=O)c1c(N)sc2c1CCC(C)C2` (stereo not drawn): under setting [2], the AC50 is 35.5 µM [rising, single point].
As to `COc1ccc(CCNC(=O)c2sc3ccccc3c2Cl)cc1OC`, the AC50 under setting [1] is 17.8 µM [rising, single point].
`CC(C)(Sc1ccc(CCN(CCCCC2CCCCC2)C(=O)NC2CCCCC2)cc1)C(=O)O`: the AC50 by setting is: under setting [2], 20 µM [falling, single point]; under setting [1], 22.4 µM [falling, partial curve].
Regarding `COc1ccccc1NC(=O)Nc1ccc(Cl)c(S(=O)(=O)Nc2ccccc2OC)c1`, under setting [1], the AC50 was 35.5 µM [rising, single point].
With `CCN(Cc1ccncc1)C(=O)c1cc(Br)cc(Br)c1O`, the AC50 under setting [2] was 10 µM [rising, partial curve, poor fit] and the concentration at half-maximal activity (AC50) under setting [1] is 6.31 µM [rising, partial curve].
